1 compound from the antibiotic and cytotoxicity screens of Wong et al. (2023) can be followed below.

Shown are results outside the selection of hits, which stands elsewhere.

For one assay, the system named is HSkMC. The assay can be described thus: cytotoxicity call (relative viability < 0.9). Conditions: 10 µM.
The test system of a further assay is HepG2. Nature of the assay: cytotoxicity call (relative viability < 0.9). Conditions: 10 µM.

For `Cc1c(C(=O)NN2CCCCC2)nn(-c2ccc(Cl)cc2Cl)c1-c1ccc(I)cc1`, the cytotoxicity call in the assay on HSkMC (human skeletal muscle cells) and in the assay with HepG2 was “inactive” in each case.
